{"source": "the supplement of paper PMC8728848", "experiment_in_all_cases": "glycan array binding signal (z-score within array); higher = stronger binding", "details_in_all_cases": "glycan notation: IUPAC condensed, linker removed", "key": {"[1]": {"target": "Neu5Ac(a2-3)Gal(b1-4)GlcNAc(b1-2)[Neu5Ac(a2-3)Gal(b1-4)GlcNAc(b1-4)]Man(a1-3)[GlcNAc(b1-4)][Neu5Ac(a2-3)Gal(b1-4)GlcNAc(b1-2)[Neu5Ac(a2-3)Gal(b1-4)GlcNAc(b1-6)]Man(a1-6)]Man(b1-4)GlcNAc(b1-4)GlcNAc", "method_in_brief": "(§1)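 From the Consortium for Functional Glycomics database, 3228 arrays were curated, keeping only those whose protein sequence was available. Binding is given as a within-array Z-score averaged across arrays sharing a protein sequence and across linkers. Negative Z-scores can be read as non-binding.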"}, "[2]": {"target": "Neu5Ac(a2-3)Gal(b1-4)GlcNAc(b1-2)[Neu5Ac(a2-3)Gal(b1-4)GlcNAc(b1-4)]Man(a1-3)[GlcNAc(b1-4)][Neu5Ac(a2-3)Gal(b1-4)GlcNAc(b1-4)Man(a1-6)]Man(b1-4)GlcNAc(b1-4)GlcNAc", "method_in_brief": "as §1"}, "[3]": {"target": "Neu5Ac(a2-3)Gal(b1-4)GlcNAc(b1-2)[Neu5Ac(a2-3)Gal(b1-4)GlcNAc(b1-6)]Man(a1-6)[Neu5Ac(a2-3)Gal(b1-4)GlcNAc(b1-2)Man(a1-3)][GlcNAc(b1-4)]Man(b1-4)GlcNAc(b1-4)GlcNAc", "method_in_brief": "as §1"}, "[4]": {"target": "Neu5Ac(a2-3)Gal(b1-4)GlcNAc(b1-3)Gal", "method_in_brief": "as §1"}, "[5]": {"target": "Neu5Ac(a2-3)Gal(b1-4)GlcNAc(b1-3)Gal(b1-3)GlcNAc", "method_in_brief": "as §1"}, "[6]": {"target": "Neu5Ac(a2-3)Gal(b1-4)GlcNAc(b1-3)Gal(b1-4)GlcNAc", "method_in_brief": "as §1"}, "[7]": {"target": "Neu5Ac(a2-3)Gal(b1-4)GlcNAc(b1-3)Gal(b1-4)GlcNAc(b1-2)Man(a1-3)[Neu5Ac(a2-3)Gal(b1-4)GlcNAc(b1-3)Gal(b1-4)GlcNAc(b1-2)Man(a1-6)]Man(b1-4)GlcNAc(b1-4)GlcNAc", "method_in_brief": "as §1"}, "[8]": {"target": "Neu5Ac(a2-3)Gal(b1-4)GlcNAc(b1-3)Gal(b1-4)GlcNAc(b1-3)Gal(b1-4)GlcNAc", "method_in_brief": "as §1"}, "[9]": {"target": "Neu5Ac(a2-3)Gal(b1-4)GlcNAc(b1-3)Gal(b1-4)GlcNAc(b1-3)Gal(b1-4)GlcNAc(b1-2)Man(a1-3)[Neu5Ac(a2-3)Gal(b1-4)GlcNAc(b1-3)Gal(b1-4)GlcNAc(b1-3)Gal(b1-4)GlcNAc(b1-2)Man(a1-6)]GalNAc", "method_in_brief": "as §1"}, "[10]": {"target": "Neu5Ac(a2-3)Gal(b1-4)GlcNAc(b1-3)Gal(b1-4)GlcNAc(b1-3)GalNAc", "method_in_brief": "as §1"}, "[11]": {"target": "Neu5Ac(a2-3)Gal(b1-4)GlcNAc(b1-3)Gal(b1-4)GlcNAc(b1-3)[Neu5Ac(a2-3)Gal(b1-4)GlcNAc(b1-3)Gal(b1-4)GlcNAc(b1-6)]GalNAc", "method_in_brief": "as §1"}, "[12]": {"target": "Neu5Ac(a2-3)Gal(b1-4)GlcNAc(b1-3)Gal(b1-4)GlcNAc(b1-6)[Gal(b1-3)]GalNAc", "method_in_brief": "as §1"}, "[13]": {"target": "Neu5Ac(a2-3)Gal(b1-4)GlcNAc(b1-3)Gal(b1-4)[Fuc(a1-3)]GlcNAc", "method_in_brief": "as §1"}, "[14]": {"target": "Neu5Ac(a2-3)Gal(b1-4)GlcNAc(b1-3)GalNAc", "method_in_brief": "as §1"}, "[15]": {"target": "Neu5Ac(a2-3)Gal(b1-4)GlcNAc(b1-3)[Neu5Ac(a2-3)Gal(b1-4)GlcNAc(b1-6)]GalNAc", "method_in_brief": "as §1"}, "[16]": {"target": "Neu5Ac(a2-3)Gal(b1-4)GlcNAc(b1-6)GalNAc", "method_in_brief": "as §1"}, "[17]": {"target": "Neu5Ac(a2-3)Gal(b1-4)GlcNAc(b1-6)[Gal(b1-3)]GalNAc", "method_in_brief": "as §1"}, "[18]": {"target": "Neu5Ac(a2-3)Gal(b1-4)GlcNAc(b1-6)[Neu5Ac(a2-3)Gal(b1-3)]GalNAc", "method_in_brief": "as §1"}, "[19]": {"target": "Neu5Ac(a2-3)Gal(b1-4)GlcNAc6S", "method_in_brief": "as §1"}, "[20]": {"target": "Neu5Ac(a2-3)Gal(b1-4)[Fuc(a1-3)]GlcNAc", "method_in_brief": "as §1"}, "[21]": {"target": "Neu5Ac(a2-3)Gal(b1-4)[Fuc(a1-3)]GlcNAc(b1-2)Man", "method_in_brief": "as §1"}, "[22]": {"target": "Neu5Ac(a2-3)Gal(b1-4)[Fuc(a1-3)]GlcNAc(b1-3)Gal", "method_in_brief": "as §1"}, "[23]": {"target": "Neu5Ac(a2-3)Gal(b1-4)[Fuc(a1-3)]GlcNAc(b1-3)Gal(b1-4)GlcNAc", "method_in_brief": "as §1"}, "[24]": {"target": "Neu5Ac(a2-3)Gal(b1-4)[Fuc(a1-3)]GlcNAc(b1-3)Gal(b1-4)[Fuc(a1-3)]GlcNAc(b1-3)Gal(b1-4)[Fuc(a1-3)]GlcNAc", "method_in_brief": "as §1"}, "[25]": {"target": "Neu5Ac(a2-3)Gal(b1-4)[Fuc(a1-3)]GlcNAc(b1-3)GalNAc", "method_in_brief": "as §1"}, "[26]": {"target": "Neu5Ac(a2-3)Gal(b1-4)[Fuc(a1-3)]GlcNAc(b1-6)[Gal(b1-3)]GalNAc", "method_in_brief": "as §1"}, "[27]": {"target": "Neu5Ac(a2-3)Gal(b1-4)[Fuc(a1-3)]GlcNAc(b1-6)[Neu5Ac(a2-3)Gal(b1-3)]GalNAc", "method_in_brief": "as §1"}, "[28]": {"target": "Neu5Ac(a2-3)Gal(b1-4)[Fuc(a1-3)]GlcNAc6S", "method_in_brief": "as §1"}, "[29]": {"target": "Neu5Ac(a2-3)Gal6S(b1-4)GlcNAc", "method_in_brief": "as §1"}, "[30]": {"target": "Neu5Ac(a2-3)Gal6S(b1-4)[Fuc(a1-3)]GlcNAc", "method_in_brief": "as §1"}, "[31]": {"target": "Neu5Ac(a2-3)GalNAc", "method_in_brief": "as §1"}, "[32]": {"target": "Neu5Ac(a2-3)GalNAc(b1-4)GlcNAc", "method_in_brief": "as §1"}, "[33]": {"target": "Neu5Ac(a2-3)[GalNAc(b1-4)]Gal(b1-4)Glc", "method_in_brief": "as §1"}, "[34]": {"target": "Neu5Ac(a2-3)[GalNAc(b1-4)]Gal(b1-4)GlcNAc", "method_in_brief": "as §1"}, "[35]": {"target": "Neu5Ac(a2-3)[GalNAc(b1-4)]Gal(b1-4)GlcNAc(b1-3)GalNAc", "method_in_brief": "as §1"}, "[36]": {"target": "Neu5Ac(a2-3)[Neu5Ac(a2-6)]GalNAc", "method_in_brief": "as §1"}}, "note": "The list shows a part of the results.", "data": [{"binder": "KISKRILTGKK", "note": "[NK11 (Sus scrofa)]", "values": [{"measurement": "glycan array binding signal (z-score)", "setting": "[1]", "result": -0.111}, {"measurement": "glycan array binding signal (z-score)", "setting": "[2]", "result": 0.32}, {"measurement": "glycan array binding signal (z-score)", "setting": "[3]", "result": 0.405}, {"measurement": "glycan array binding signal (z-score)", "setting": "[4]", "result": -0.148}, {"measurement": "glycan array binding signal (z-score)", "setting": "[5]", "result": 0.481}, {"measurement": "glycan array binding signal (z-score)", "setting": "[6]", "result": 0.782}, {"measurement": "glycan array binding signal (z-score)", "setting": "[7]", "result": -0.199}, {"measurement": "glycan array binding signal (z-score)", "setting": "[8]", "result": 0.099}, {"measurement": "glycan array binding signal (z-score)", "setting": "[9]", "result": 0.541}, {"measurement": "glycan array binding signal (z-score)", "setting": "[10]", "result": 0.887}, {"measurement": "glycan array binding signal (z-score)", "setting": "[11]", "result": 0.509}, {"measurement": "glycan array binding signal (z-score)", "setting": "[12]", "result": -1.6}, {"measurement": "glycan array binding signal (z-score)", "setting": "[13]", "result": -0.352}, {"measurement": "glycan array binding signal (z-score)", "setting": "[14]", "result": 0.319}, {"measurement": "glycan array binding signal (z-score)", "setting": "[15]", "result": 1.38}, {"measurement": "glycan array binding signal (z-score)", "setting": "[16]", "result": -0.366}, {"measurement": "glycan array binding signal (z-score)", "setting": "[17]", "result": 1.1}, {"measurement": "glycan array binding signal (z-score)", "setting": "[18]", "result": -1.16}, {"measurement": "glycan array binding signal (z-score)", "setting": "[19]", "result": 0.656}, {"measurement": "glycan array binding signal (z-score)", "setting": "[20]", "result": -0.126}, {"measurement": "glycan array binding signal (z-score)", "setting": "[21]", "result": -0.124}, {"measurement": "glycan array binding signal (z-score)", "setting": "[22]", "result": 0.515}, {"measurement": "glycan array binding signal (z-score)", "setting": "[23]", "result": 1.26}, {"measurement": "glycan array binding signal (z-score)", "setting": "[24]", "result": -0.24}, {"measurement": "glycan array binding signal (z-score)", "setting": "[25]", "result": -0.082}, {"measurement": "glycan array binding signal (z-score)", "setting": "[26]", "result": 0.805}, {"measurement": "glycan array binding signal (z-score)", "setting": "[27]", "result": -0.509}, {"measurement": "glycan array binding signal (z-score)", "setting": "[28]", "result": 3.52}, {"measurement": "glycan array binding signal (z-score)", "setting": "[29]", "result": 0.01}, {"measurement": "glycan array binding signal (z-score)", "setting": "[30]", "result": -0.648}, {"measurement": "glycan array binding signal (z-score)", "setting": "[31]", "result": 0.489}, {"measurement": "glycan array binding signal (z-score)", "setting": "[32]", "result": -0.092}, {"measurement": "glycan array binding signal (z-score)", "setting": "[33]", "result": 0.631}, {"measurement": "glycan array binding signal (z-score)", "setting": "[34]", "result": -0.361}, {"measurement": "glycan array binding signal (z-score)", "setting": "[35]", "result": 0.366}, {"measurement": "glycan array binding signal (z-score)", "setting": "[36]", "result": 0.401}]}]}
